Assay results published in US20250295686A1, “COMBINATION DECITABINE AND MPS1 INHIBITOR THERAPY TO PRIME CANCER IMMUNOGENICITY” (Dana-Farber Cancer Institute, Inc., priority 2021, published 2025).
“Also recorded” adds a separate entry of the source. For at least one compound, name, drawing or mass did not settle the structure.

Legend:
STING pathway [1] = assay: Screening of DNA-damaging agents: CXCL10 / IFN-β ELISA in conditioned medium of H1944 cells after pulse treatment; type: cell-based, human; conditions: for CXCL10 secretion in H1944 cells following 48-hour pulse treatment: IC50-based screening concentration, ELISA of conditioned medium
From the text: Due to their particular hypersensitivity, H1944 cells were utilized as a model system in which to conduct an unbiased screen of cytotoxic chemotherapies or targeted DNA-damaging agents for their ability to upregulate endogenous 2′3′-cGAMP production following pulse treatment, including cGAS-deficient H2122 cells as a counter-screen (FIGS. 3A and 3B). […] Additionally, hydroxyurea or nocodazole were included as controls to induce S-phase or M-phase cell cycle arrest. The IC50 was identified for each compound for cell viability in H1944 cells, and this concentration was utilized for the screen (FIG. 4A and Table 1). It was shown that each agent induced cellular cytotoxicity and/or DNA-damage response at this concentration, as measured by the induction of propidium iodide positive cells, cleaved PARP fragments, or histone TH2A.X expression (FIGS. 4B and 4C).
(§1) Human IFN-β (Thermo Fisher Scientific, Cat. #414101), human CXCL10 (R&D systems, Cat. #DIP100), mouse CXCL10 (R&D systems, Cat. #DY466), and 2′3′-cGAMP (Cayman Chemical, Cat. #501700) ELISAs were performed according to the manufacturer's instructions. Conditioned media from each cell lines was collected after 24 hour culture. Values represent the average of four replicates from at least two independent experiments (biological replicates).

H1944 cells [2] = assay: Quantification of micronucleus formation; type: cell-based, human; conditions: 48-hour pulse treatment schedule, 200 nM CFI-402257, 5 nM docetaxel, 200 nM barasertib
From the text: MPS1 is a regulator of the spindle assembly checkpoint (SAC), and MPS1 inhibition in other contexts is known to facilitate massive chromosome missegregation (London and Biggins, 2014). This effect could therefore be related to the formation of micronuclei, known activators of cGAS-STING signaling generated by mitotic slippage and subsequent progression into G1 (Mackenzie et al., 2017). […] Furthermore, induction of CXCL10 mRNA expression in H1944 cells directly correlated with the number of micronuclei induced by these DNA-damaging agents, with CFI-402257 representing the clear outlier (FIG. 5C). Additionally, Lamin B2 over-expression, which is sufficient to inhibit micronuclei disruption (Hatch et al., 2013) and could protect against cGAS recognition, attenuated CXCL10 secretion induced by pulse treatment with MPS1 inhibitor (FIGS. 6A and 6B).
Cells were plated onto chamber slides (CellTreat, Cat #229168), and treated with DNA-damaging agents for 48 hours. […] Z-stack images were subjected to maximum projection followed by quantitative analysis using CellSens. All samples were imaged and analyzed with the same setting throughout the experiments. The number of micronuclei were counted from three different fields for each sample. […] Slides were imaged with Zeiss LSM 880 confocal microscopy, and colocalization was determined using ImageJ.

cGAS = assay: Intracellular 2′3′-cGAMP ELISA in H1944 cells; type: cell-based, human; conditions: schedule for the screening
H1944 cells [3] = assay: Cell cycle analysis through propidium iodide staining; type: cell-based, human; conditions: 48 hours, 200 nM CFI-402257, 2.5 μM cisplatin, 5 μM etoposide, 500 nM pemetrexed, 50 μM hydroxyurea
From the text: For cell cycle analysis, cells were stained by BD CycleTEST™ Plus DNA according to the manufacturer's instructions, and then analyzed by FACSCanto 11 (BD Biosciences). For cell viability analysis, cells were stained by propidium iodide (PI) according to the manufacturer's instructions of Annexin V using Alexa Fluor 488 Annexin V dead cell apoptosis kit (Thermo Fisher Scientific, Cat. #V13245) and then analyzed by FACSCanto 11 (BD Biosciences).

THP1 cells = assay: STING pathway activation (CXCL10 ELISA, immunoblot) in PMA-differentiated macrophage-like THP1 cells; type: cell-based, human; conditions: 200 nM CFI-402257 screening schedule or 10 μM ADU-S100 24 hours
Procedure: Based on these observations, MPS1 inhibition might also induce micronuclei more efficiently in proliferating cancer cells as compared with non-genomically altered, non-proliferative cells in the TME such as immune cells and endothelial cells.
as §1
Cells were lysed in RIPA buffer containing 1× protease inhibitors (Roche, Cat #11-836-145-001) and phosphatase inhibitors (50 mmol/L NaF and 100 mmol/L Na3VO4). […] Imaging of blots and quantitation of bands was performed using the LICOR Odyssey system, or LAS-3000 (Fujifilm).

STING pathway [4] = assay: Pre-treatment with epigenetic inhibitors followed by MPS1i in STING^Absent KL cells (CXCL10 / IFNβ ELISA); type: cell-based, human
H1944 KL cells = assay: Immune cell migration assay (3D microfluidic device), H1944 spheroids; type: cell-based, human
[5] = tested on: A549 STING^Absent KL cells; assay: Immune cell migration assay (3D microfluidic device), A549 spheroids; type: cell-based, human; conditions: pretreatment with DAC −/+ GSK126
393P-KL cells = assay: Sting protein levels in murine 393P-KL cells in vitro (immunoblot); type: cell-based, mouse; conditions: 100 nM DAC pretreatment
393P-KL tumors = assay: Pharmacodynamic study in syngeneic murine KL model (immunoblot, qRT-PCR, IHC of tumors); type: in vivo, mouse; conditions: 0.5 mg/kg DAC daily for 7 days; harvested 24 hours after the last dose; versus vehicle control

CCN(CCCOc1ccc2c(Nc3cc(CC(=O)Nc4cccc(F)c4)n[nH]3)ncnc2c1)CCOP(=O)(O)O [barasertib]
CXCL10 secretion in H1944 cells following 48-hour pulse treatment (STING pathway [1]; H1944 cells): induce significant CXCL10 secretion; also recorded: partially activated CXCL10 production | CXCL10 induction at lower concentrations (STING pathway [1]; H1944 cells, concentrations below the IC50, pulse treatment): not upregulated | micronuclei formation (H1944 cells [2]): generated micronuclei

Cc1cc(-c2cnn3c(NC[C@H]4C[C@@](C)(O)C4)cc(Oc4cccnc4)nc23)ccc1C(=O)NC1CC1 [CFI-402257]
STING signaling activation in H1944 cells (STING pathway [1]; 200 nM CFI-402257 screening schedule vs 10 μM ADU-S100 24 hours): more efficiently activated STING signaling | CXCL10 and IFNβ secretion following pulse treatment, effect of cGAS depletion (STING pathway [1]; H1944 cells, 200 nM CFI-402257, cGAS sgRNA vs scramble sgRNA): markedly attenuated | cGAS-STING-induced CXCL10 and IFNβ secretion and activation of STAT1 during continuous exposure (STING pathway [1]; H1944 cells, 200 nM, continuous exposure over 72 h compared with pulse 48 hour treatment and 24 hour release): substantially weaker | CXCL10 secretion in H1944 cells following 48-hour pulse treatment (STING pathway [1]; H1944 cells): induce significant CXCL10 secretion | intracellular 2′3′-cGAMP levels (cGAS): detectable levels | micronuclei formation (H1944 cells [2]): generated abundant micronuclei | cell cycle status (H1944 cells [3]): comparable cell cycle status with control cells | STING pathway activation in macrophage-like THP1 cells (THP1 cells): did not significantly activate the STING pathway | response of A549 cells to MPS1 inhibitor treatment alone (CXCL10 and IFNβ secretion) (STING pathway [4]; A549 STING^Absent KL cells, 200 nM CFI-402257): almost completely resistant | NK-92 cell migration towards tumor cell spheroids (H1944 KL cells; H1944 spheroids pretreated with CFI-402257): accelerated the migration of NK-92 cells | CXCR3-reconstituted Jurkat T-cell migration (H1944 KL cells; H1944 spheroids pretreated with CFI-402257 or DMSO): migration was only observed in the presence of H1944 KL cells that were pretreated

Nc1ncn([C@H]2C[C@H](O)[C@@H](CO)O2)c(=O)n1 [decitabine]
CXCL10 and IFNβ secretion after epigenetic pre-treatment followed by CFI-402257 (STING pathway [4]; A549 cells, DAC −/+ 5 μM GSK126 pre-treatment, then 200 nM CFI-402257): potent induction | migration of Jurkat-CXCR3 and NK-92 cells induced by MPS1i treatment [5]: enhanced the migration of both Jurkat-CXCR3 and NK-92 cells | Sting protein levels in 393P-KL cells (393P-KL cells): restored Sting protein levels | STING expression in tumors (immunoblot) (393P-KL tumors): increased
